Measurements published in patent US6924101B2, “Methods for identifying anti-microbial agents” (priority 1997, dated 2005).
Some entries share one result that the patent states for a list of compounds.

Tested on: E. coli DH5α
Test: Effect of different concentrations of inducer IPTG on viability (FIG. 9)
Format: cell-based
Details: 100 μm IPTG
Method: FIG. 9 is a graph showing the effect of varying concentrations of inducer on the viability of DH5α containing pJB37 (panel A) or pJB53 (panel B).
Effect of different concentrations of transcriptional inducer. Experiments were carried out to determine the effect of different concentrations of the inducer IPTG on bacterial growth and viability with the two clones where antisense RNA is bacteriocidal. Overnight cultures were diluted 1:100 into LB media containing 0, 10, 100 500 or 1000 micro molar (μM) IPTG. At the time of induction and every 2 hours thereafter, aliquots were plated on LB/ampicillin agar to determine CFUs/ml.

B1: pJB53: pLEX5BA with a 714 bp PstI/HindIII fragment of viaA in antisense orientation; expresses antisense RNA (SEQ ID NO: 4) (nucleic acid)
antisense: CUGCAGGCUGAGGUGUUGCCCUUACAAAUGCAACAACGACAUGGAUUACAACACCCUCAUAAACAAAGGGCAAUCACCUGAUCUAAGCUCUUACCUAUGACAGUGAUAGGUUAUGCCUUUUACUCGACUUUUGCACUGACUGAAAAGGACAAAUUAAUGUUAAAAAAGAUACUUUUACUGGCUCUGCUUCCUGCAAUCGCCUUCGCAGAGGAACUUCCUGCUCCAGUAAAAGCGAUUGAAAAACAGGGCAUUACAAUCAUCAAAACAUUCGAUGCCCCCGGAGGAAUGAAAGGUUAUCUCGGAAAGUAUCAGGAUAUGGGCGUCACCAUCUACCUGACUCCAGAUGGUAAGCACGCUAUCUCUGGUUACAUGUACAACGAGAAAGGUGAAAACCUGAGUAACACACUUAUCGAAAAAGAAAUUUACGCACCAGCCGGACGCGAAAUGUGGCAACGGAUGGAACAAUCCCACUGGCUCCUCGACGGUAAAAAAGAUGCGCCGGUCAUUGUCUACGUCUUCGCCGAUCCGUUCUGCCCAUAUUGUAAACAGUUCUGGCAGCAGGCGCGCCCGUGGGUAGAUUCUGGCAAAGUGCAAUUAAGAACAUUGUUGGUUGGGGUUAUCAAGCCAGAAAGCCCGGCGACAGCAGCGGCAAUUCUUGCCUCCAAAGAUCCCGCAAAAACCUGGCAACAAUAUGAAGCCUCUGGUGGCAAGCUU
modifications: expressed from plasmid pLEX5BA; Escherichia coli viaA
period of survival before CFU began to decrease: ≥ 4 h
